This data set is described as follows: general procedure: Fmoc solid-phase peptide synthesis; Fmoc-Val-Wang resin. As to conditions: whole synthesis; for final HPLC purity: WATERS H-CLASS analytical UHPLC, ReproSil-Pur Basic C-18, scale of the general procedure 0.1 mmol.

HELM strings list residues between dots; [ac] is acetyl, [am] amide, other brackets name non-standard units.

In the case of “y-G-r-k-k-r-r-q-r-r-r-G-Aib-Dab-homoArg-Tle-Tle-T-D-V”, the “final HPLC purity” value was found to be 98.68%. The same measure, in the same setting: the value for y-G-r-k-k-r-r-q-r-r-r-G-T-Tle-Tle-T-D-V was 97.06%. The same measure, in the same setting: the value for “PEPTIDE1{[dY].G.[dR].[dK].[dK].[dR].[dR].[dQ].[dR].[dR].[dR].T.[homoArg].[homoArg].I.T.D.V}$$$$V2.0” was 98.77%; that for “PEPTIDE1{[dR].K.K.R.[dR].Q.R.R.[dR].G.[Aib].[Dab].T.[Tle].[Tle].T.D.V}$$$$V2.0” was 97.82%.

Regarding y-G-r-k-k-r-r-q-r-r-r-G-T-Chg-Tle-S-D-V, the “final HPLC purity” value worked out at 98.54%. In the case of “y-G-r-k-k-r-r-q-r-r-r-AEEA-Tle-Tle-T-D-V”, the “final HPLC purity” value worked out at 98.73%. “PEPTIDE1{[dY].G.[dR].[dK].[dK].[dR].[dR].[dQ].[dR].[dR].[dR].G.[Aib].[Dab].T.[Tle].[Tle].T.D.V}$$$$V2.0”: the “final HPLC purity” value is given as 97.92%. For the setting “scale 0.1 mmol”, the isolated yield entry was “about 20%”. Turning to “PEPTIDE1{[dY].G.[dR].[dK].[dK].[dR].[dR].[dQ].[dR].[dR].[dR].G.[Aib].[Dab].T.[Chg].[Tle].S.D.V}$$$$V2.0”, the “final HPLC purity” value came to 98.95%. As for “PEPTIDE1{[dY].G.[dR].[dK].[dK].[dR].[dR].[dQ].[dR].[dR].[dR].[Nle].T.T.[Tle].[Tle].T.D.V}$$$$V2.0”, the “final HPLC purity” value came to 97.93%.
